# Earlier results in patent US10525103B2, “Combined use of a vector encoding a modified receptor and its exogenous agonist in the treatment of seizures” (UCL BUSINESS LTD, priority 2014, dated 2020).
# For at least one compound, name, drawing or mass did not settle the structure.
# Test system: human muscarinic acetylcholine receptors mutated to DREADDs
# Conditions: cited from earlier work
smiles,measurement,value
CN1CCN(C2=Nc3cc(Cl)ccc3Nc3ccccc32)CC1 [clozapine],activation of DREADD receptors,readily activated
